This is one part of the list. The main result of the screen is listed elsewhere. These columns were measured beside it and carry no call. The list favours compounds with an active or inconclusive main result. Words in brackets tell the shape of the fitted curve; partial curves, single points and poor fits give uncertain potencies.
Experiment: qHTS Assay to Find Inhibitors of Chronic Active B-Cell Receptor Signaling
Settings: ABC-DLBCL IkBa-CBG/CBR reporter, luminescence ratio (green luciferase fused to IkBa over red control in TMD8 lymphoma cells), 4 h
Summary of the method: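 Compounds up to 46 uM were incubated four hours with TMD8 cells whose green CBG68 luciferase is fused to IkappaBalpha; red CBR luminescence normalised the signal, and concentration-effect curves were fitted to fusion, red and ratio data.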

[1] = measured here: CBR red luminescence, cell number
[2] = measured here: IkBa-CBG green luminescence

Structure (SMILES)	AC50 [1]	AC50 [2]
N#Cc1nc(-c2cccc3ccccc23)oc1N	6.51 µM [falling, single point]	–
O=C(NCCc1ccccc1)C(=O)c1cn(CC(=O)N2CCCC2)c2ccccc12	1.41 µM [falling, full curve]	–
Nn1c(COc2cccc(Br)c2)nnc1SCC(=O)NCC1CCCO1 (centres undefined)	0.461 µM [rising, full curve, poor fit]	–
O=C(Nc1cc(=O)[nH]c2ncnn12)c1ccco1	20 µM [rising, single point]	–
NC(=O)c1ccsc1NC(=O)COC(=O)Cc1cccc2ccccc12	11.6 µM [falling, partial curve]	–
CC1CCCCC1NC(=O)C(=O)NCC1CCCO1 (centres undefined)	7.31 µM [falling, partial curve, poor fit]	–
O=c1c2cn[nH]c2nc(SCc2ccccc2F)n1-c1ccc(Br)cc1	25.9 µM [falling, partial curve]	29.1 µM [rising, partial curve, poor fit]
COc1ccc2c(c1)C(SCC(=O)NCCc1ccc(Cl)cc1)CC(C)(C)O2 (centres undefined)	29.1 µM [falling, partial curve, poor fit]	–
Cc1cccc(/C=N/N2CCN(c3ccccc3)CC2)c1	7.31 µM [rising, partial curve, poor fit]	–
CCCCN(Cc1ccccc1)C(=O)C1CCN(S(=O)(=O)c2c(C)noc2C)CC1	20.6 µM [rising, partial curve, poor fit]	–
COC(=O)C1CCN(S(=O)(=O)c2ccc(OC)cc2)CC1	0.184 µM [rising, full curve, poor fit]	–
CC(C)N(Cc1nc(-c2ccccc2)no1)S(=O)(=O)c1ccccc1	9.2 µM [rising, partial curve]	–
COc1ccc2nc(C)cc(SCC(=O)N/N=C/c3ccc(O)cc3O)c2c1	23.1 µM [falling, single point]	–
O=C(C[n+]1cc(-c2ccc(Cl)cc2)n2c1CCCCC2)c1ccccc1	2.82 µM [falling, full curve]	–
CC(=O)OCCNc1cc(SCc2ccco2)c2nonc2c1[N+](=O)[O-]	16.4 µM [falling, partial curve, poor fit]	–
COc1ccc(C(C)(C)C)cc1NC(=O)c1[nH]c(C)c(C(C)=O)c1C	20 µM [rising, partial curve, poor fit]	–
CN(C)/C=N/c1cc(=O)n(C)c(=O)n1Cc1ccccc1	29.1 µM [rising, single point]	16.4 µM [falling, single point]
Cc1cc2ccccc2nc1SCC(=O)N1c2ccccc2CC1C (centres undefined)	23.1 µM [rising, partial curve, poor fit]	–
CCOc1ccc(NC(=O)CCN2C(=O)c3ccccc3C2=O)cc1	0.891 µM [rising, full curve, poor fit]	–
CCCC1=C(C(=O)OCC)C(c2cccs2)C(C#N)=C(N)O1 (centres undefined)	0.411 µM [falling, full curve, poor fit]	–
Cc1c(O)ccc(/C=N/Nc2nc(-c3cccnc3)nc3ccccc23)c1O	7.94 µM [falling, partial curve, poor fit]	–

Compounds listed so far that have four or more nitrogen atoms, in the order listed:
Structure (SMILES)	AC50 [1]	AC50 [2]
Nn1c(COc2cccc(Br)c2)nnc1SCC(=O)NCC1CCCO1 (centres undefined)	0.461 µM [rising, full curve, poor fit]	–
O=C(Nc1cc(=O)[nH]c2ncnn12)c1ccco1	20 µM [rising, single point]	–
O=c1c2cn[nH]c2nc(SCc2ccccc2F)n1-c1ccc(Br)cc1	25.9 µM [falling, partial curve]	29.1 µM [rising, partial curve, poor fit]
CC(=O)OCCNc1cc(SCc2ccco2)c2nonc2c1[N+](=O)[O-]	16.4 µM [falling, partial curve, poor fit]	–
CN(C)/C=N/c1cc(=O)n(C)c(=O)n1Cc1ccccc1	29.1 µM [rising, single point]	16.4 µM [falling, single point]
Cc1c(O)ccc(/C=N/Nc2nc(-c3cccnc3)nc3ccccc23)c1O	7.94 µM [falling, partial curve, poor fit]	–

Remaining list, next part.

Structure (SMILES)	AC50 [1]	AC50 [2]
CNC(=O)c1[nH]cnc1C(=O)Nc1ccccc1	3.66 µM [falling, partial curve, poor fit]	–
Cc1ccc(N2CC(=O)N(NC(=O)c3sc4nc(C)cc(C)c4c3N)CC2=O)cc1	0.794 µM [falling, full curve, poor fit]	–
Cn1c(-c2ccccc2)cnc1N	17.8 µM [rising, single point]	–
O=c1[nH]c(CSc2cccc[n+]2[O-])nc2ccccc12	35.5 µM [falling, single point]	35.5 µM [falling, single point]
COC(=O)[C@H](CC(C)C)N1Cc2cc(OC)cc(OC)c2-c2ccccc2S1(=O)=O	5.8 µM [rising, full curve, poor fit]	–
COc1cc(C(=O)OCC(=O)NCCN2C(=O)CSC2=O)ccc1OCc1c(C)noc1C	17.8 µM [rising, partial curve, poor fit]	–
O=C(OCc1cnc(Cl)s1)c1cccc(Cl)c1Cl	29.1 µM [rising, single point]	–
O=C(Nc1cc(Cl)ccc1-n1cncn1)c1ccc([N+](=O)[O-])o1	9.2 µM [falling, partial curve, poor fit]	–
O=c1cc(-c2ccccc2)[nH]n1-c1ccc([N+](=O)[O-])cc1	0.562 µM [rising, partial curve]	–
COc1ccccc1-c1nnc2sc(COc3ccc(Cl)cc3Cl)nn12	7.08 µM [falling, full curve, poor fit]	–
O=C(NC1CCCC1)C1(c2ccccc2)CCN(S(=O)(=O)c2ccccc2)CC1	2.31 µM [falling, partial curve, poor fit]	–
Cc1cccn2c(=O)nc(SCC(=O)c3ccc(Cl)cc3)nc12	29.1 µM [falling, single point]	–
CCCC(=O)C1=C(c2cccc(OC)c2)N(C(=O)CCC)n2c(C)nnc2S1	11.2 µM [falling, single point]	–
Fc1ccc(SCCc2ccccn2)cc1	35.5 µM [rising, single point]	–
COc1ccc(NS(=O)(=O)c2cc3c4c(c2)CCN4C(=O)CC3)cc1OC	2.31 µM [rising, single point]	–
CCc1ccc(NC(=S)NC(=O)CC(C)C)cc1	7.31 µM [rising, partial curve, poor fit]	–
O=C(CC(Nc1ccccc1Cl)C(=O)O)c1ccccc1 (centres undefined)	35.5 µM [falling, single point]	–
Cn1c(SCC(=O)Nc2ccccc2)nc(O)cc1=O	14.1 µM [falling, partial curve]	–
O=C(NN=C1C2CC3CC(C2)CC1C3)c1ccccc1O	1.58 µM [falling, full curve]	–
CCC(C)(C)NC(=O)C(c1ccccn1)N(C(=O)c1csnn1)c1ccc(C)cc1 (centres undefined)	10 µM [rising, partial curve, poor fit]	–

Source: PubChem BioAssay AID493014 (National Center for Advancing Translational Sciences (NCATS), 2011)
